The values below come from patent US20200131558A1, “PAPER-BASED ASSAY FOR ANTIMICROBIAL RESISTANCE” (Colorado State University Research Foundation, priority 2017, published 2020).

This data set relates to β-lactamase. Put plainly: Nitrocefin concentration optimization on paper (color intensity change).

In the case of `O=C(Cc1cccs1)N[C@@H]1C(=O)N2C(C(=O)O)=C(/C=C/c3ccc([N+](=O)[O-])cc3[N+](=O)[O-])CS[C@H]12` [nitrocefin], the color intensity change runs as follows: (5 μL of 1 mM nitrocefin dried on paper, 1 U/mL β-lactamase for 30 min) 71%; (nitrocefin in solution, 100 U/mL β-lactamase, 1 mM nitrocefin) 64%.
